Results are given in words; binding and its absence hold for the method and conditions named. Some binding calls cover weakened binding; strength is not graded here.

Sequences of proteins named here, by UniProt entry; tags and fusion partners are left off. A change or cut given only in a name is not applied to a line headed by its entry. Residues count along the entry.
UniProt P69959: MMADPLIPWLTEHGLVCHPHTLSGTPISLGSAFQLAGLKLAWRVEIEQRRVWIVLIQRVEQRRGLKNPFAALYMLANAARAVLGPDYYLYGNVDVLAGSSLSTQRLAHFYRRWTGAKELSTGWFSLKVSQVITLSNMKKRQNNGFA
UniProt P68640: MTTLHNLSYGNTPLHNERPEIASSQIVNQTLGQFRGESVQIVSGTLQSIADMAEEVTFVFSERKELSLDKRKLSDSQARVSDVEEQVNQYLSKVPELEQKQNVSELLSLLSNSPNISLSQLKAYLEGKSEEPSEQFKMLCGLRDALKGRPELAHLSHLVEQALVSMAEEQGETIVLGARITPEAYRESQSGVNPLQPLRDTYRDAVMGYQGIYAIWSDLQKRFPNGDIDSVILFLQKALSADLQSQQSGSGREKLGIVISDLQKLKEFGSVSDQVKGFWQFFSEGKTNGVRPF
UniProt P69968: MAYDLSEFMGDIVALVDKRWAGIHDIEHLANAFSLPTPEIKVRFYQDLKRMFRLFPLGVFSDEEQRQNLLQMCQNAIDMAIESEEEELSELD
UniProt P21207: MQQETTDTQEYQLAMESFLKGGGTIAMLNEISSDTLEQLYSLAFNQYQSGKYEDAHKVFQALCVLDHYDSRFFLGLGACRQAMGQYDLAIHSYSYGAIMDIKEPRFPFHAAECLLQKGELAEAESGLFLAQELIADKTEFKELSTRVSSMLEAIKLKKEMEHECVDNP
UniProt Q56973: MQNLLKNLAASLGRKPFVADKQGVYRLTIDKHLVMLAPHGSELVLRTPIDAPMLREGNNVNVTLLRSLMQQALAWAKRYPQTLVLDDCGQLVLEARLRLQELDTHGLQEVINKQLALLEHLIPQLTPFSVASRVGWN
UniProt O68690: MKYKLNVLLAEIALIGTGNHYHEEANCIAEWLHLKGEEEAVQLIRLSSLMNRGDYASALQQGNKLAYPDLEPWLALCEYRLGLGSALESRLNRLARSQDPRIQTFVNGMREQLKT
UniProt P69955: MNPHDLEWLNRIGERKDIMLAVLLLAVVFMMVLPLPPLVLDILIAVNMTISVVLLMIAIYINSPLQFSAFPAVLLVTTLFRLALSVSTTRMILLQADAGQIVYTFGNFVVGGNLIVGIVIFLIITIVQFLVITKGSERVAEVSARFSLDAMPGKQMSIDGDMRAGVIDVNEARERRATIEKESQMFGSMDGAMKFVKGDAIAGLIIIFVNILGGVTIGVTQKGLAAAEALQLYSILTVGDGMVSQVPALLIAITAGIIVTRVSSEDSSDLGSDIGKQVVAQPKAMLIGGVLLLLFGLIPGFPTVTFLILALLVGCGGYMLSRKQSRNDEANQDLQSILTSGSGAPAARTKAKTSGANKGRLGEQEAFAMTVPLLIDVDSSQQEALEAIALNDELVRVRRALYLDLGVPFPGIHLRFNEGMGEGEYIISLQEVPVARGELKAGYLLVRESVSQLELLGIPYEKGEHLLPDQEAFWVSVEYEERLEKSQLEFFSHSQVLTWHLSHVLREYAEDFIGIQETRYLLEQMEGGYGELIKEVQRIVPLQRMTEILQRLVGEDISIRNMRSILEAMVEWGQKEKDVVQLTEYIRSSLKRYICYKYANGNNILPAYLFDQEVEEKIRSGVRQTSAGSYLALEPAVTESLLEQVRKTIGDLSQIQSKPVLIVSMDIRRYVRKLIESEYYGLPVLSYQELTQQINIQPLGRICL
LcrD_((1–500)): residues 1-500 of P69955
LcrD_((207–705)): residues 207-704 of P69955
UniProt O68693: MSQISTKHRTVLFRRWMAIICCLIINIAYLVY
UniProt P61380: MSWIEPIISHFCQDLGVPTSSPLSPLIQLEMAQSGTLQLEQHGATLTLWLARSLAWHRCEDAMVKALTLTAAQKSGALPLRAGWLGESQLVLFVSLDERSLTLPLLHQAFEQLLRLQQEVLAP
UniProt P31493: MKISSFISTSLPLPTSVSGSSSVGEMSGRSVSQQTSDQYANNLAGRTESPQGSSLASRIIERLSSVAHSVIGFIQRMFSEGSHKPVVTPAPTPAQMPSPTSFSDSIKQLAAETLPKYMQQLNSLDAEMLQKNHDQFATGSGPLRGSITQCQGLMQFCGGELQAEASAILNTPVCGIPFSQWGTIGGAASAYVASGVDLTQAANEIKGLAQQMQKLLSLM
UniProt O68692: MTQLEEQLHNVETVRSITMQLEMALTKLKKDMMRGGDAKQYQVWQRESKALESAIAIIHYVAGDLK

The record followed here is PMC3551969.

Among the targets are LcrR (Y. pestis) (UniProt P69959); YopN (Y. pestis) (UniProt P68640); TyeA (Y. pestis) (UniProt P69968); SycD (Y. pestis) (UniProt P21207); YscB (Y. pestis) (UniProt Q56973); YscG (Y. pestis) (UniProt O68690).
Holding throughout (experiment): two-hybrid
The target in assay [1] is LcrD_((207–705)) (Y. pestis) (UniProt P69955).
Assay [2] concerns the target LcrD_((1–500)) (Y. pestis) (UniProt P69955).

YscA (from UniProt O68693 1-32): the binding result with LcrR (Y. pestis) was “binds”. Regarding YscB (from UniProt Q56973 1-137), the binding entry with YopN (Y. pestis) is given as “no binding”. As for YscG (from UniProt O68690 1-115), the binding result in the assay with TyeA (Y. pestis) and with SycD (Y. pestis) was “binds” each time. Turning to SycN (from UniProt P61380 1-123), the binding entry is “no binding” in the assay with YopN (Y. pestis) and “binds” with YscB (Y. pestis).

For YopE (from UniProt P31493 1-219), the binding entry is on record as “binds” in assay [1] and “no binding” in assay [2]. For YscE (from UniProt O68692 1-66), the binding result with YscG (Y. pestis) was “binds”. For the substance YopN (from UniProt P68640 1-293), the binding result with TyeA (Y. pestis) is reported as “binds”.
